Results from article PMC8117511.
Results are given in words; binding and its absence hold for the method and conditions named. For some assays here: Binding seen in cells or lysates may run through a third protein. Some binding calls cover weakened binding; strength is not graded here.

Sequences of proteins named here, by UniProt entry; tags and fusion partners are left off.
UniProt Q04206: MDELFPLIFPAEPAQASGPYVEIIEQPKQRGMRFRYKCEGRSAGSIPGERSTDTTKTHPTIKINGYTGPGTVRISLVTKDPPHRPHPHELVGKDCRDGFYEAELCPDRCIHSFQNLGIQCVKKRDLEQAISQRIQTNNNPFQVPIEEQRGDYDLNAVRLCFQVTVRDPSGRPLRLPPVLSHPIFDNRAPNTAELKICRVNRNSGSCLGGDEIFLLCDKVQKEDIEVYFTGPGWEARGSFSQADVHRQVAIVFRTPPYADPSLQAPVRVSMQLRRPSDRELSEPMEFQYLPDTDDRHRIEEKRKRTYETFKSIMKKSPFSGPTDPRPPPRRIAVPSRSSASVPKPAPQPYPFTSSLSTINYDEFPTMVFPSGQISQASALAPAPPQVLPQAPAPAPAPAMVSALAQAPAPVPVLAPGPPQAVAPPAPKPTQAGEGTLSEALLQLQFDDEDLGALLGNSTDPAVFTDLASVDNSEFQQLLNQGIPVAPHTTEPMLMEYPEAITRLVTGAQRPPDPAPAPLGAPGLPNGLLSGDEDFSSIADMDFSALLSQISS
UniProt O95863: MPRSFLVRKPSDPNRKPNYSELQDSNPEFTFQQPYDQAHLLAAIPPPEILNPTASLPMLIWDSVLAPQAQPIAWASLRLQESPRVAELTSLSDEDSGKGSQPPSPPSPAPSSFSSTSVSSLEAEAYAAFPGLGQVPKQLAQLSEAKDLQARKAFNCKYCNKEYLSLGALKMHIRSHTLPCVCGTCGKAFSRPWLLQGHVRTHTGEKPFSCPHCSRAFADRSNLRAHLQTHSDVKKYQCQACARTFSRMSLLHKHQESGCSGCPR

Legend:
[1] = molecular target: P65, a NF-κB subunit (human (endogenous in human cell lines RKO, DLD1)) (UniProt Q04206); experiment: ChIP-reChIP; Re-ChIP-IT kit; first ChIP with P65 antibody, second ChIP with Snail antibody; HK3 promoter chromatin detected by semi-quantitative PCR; cells treated with or without LPS
[2] = molecular target: P65, a NF-κB subunit (human (endogenous in human cell lines RKO, DLD1)) (UniProt Q04206); experiment: co-IP; whole cell extracts in IP lysis buffer with PMSF; Protein G magnetic beads with anti-P65 or anti-Snail antibody, overnight at 4°C; washed with PBS + 0.1% Tween 20; western blotting; cells treated with or without LPS

binding [1]: binds | binding [2]: binds
Substance: Snail (from UniProt O95863 1-264)
